Assay results reported in PMC3796484.

Chains of the proteins cited; added tags and fusions are not shown. Lines headed by an entry give the natural chain unless they say otherwise; changes in a name come on top.
UniProt Q9NS37: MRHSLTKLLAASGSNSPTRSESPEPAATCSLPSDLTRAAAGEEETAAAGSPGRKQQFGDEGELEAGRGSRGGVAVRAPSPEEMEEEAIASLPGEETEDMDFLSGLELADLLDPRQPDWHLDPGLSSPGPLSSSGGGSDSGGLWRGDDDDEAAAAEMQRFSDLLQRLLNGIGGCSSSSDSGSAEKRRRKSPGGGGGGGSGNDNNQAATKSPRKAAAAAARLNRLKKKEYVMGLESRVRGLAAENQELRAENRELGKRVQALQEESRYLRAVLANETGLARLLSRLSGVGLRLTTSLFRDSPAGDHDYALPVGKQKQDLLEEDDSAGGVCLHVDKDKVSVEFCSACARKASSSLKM

Target: Zhangfei, tagged at its amino terminus with a FLAG epitope (UniProt Q9NS37)
Assay: co-IP; Vero cells transfected with Xbp1s and FLAG-Zhangfei (or ZF(L/A)), 5 uM MG132 for 24 h; lysis in 50 mM Tris pH 7.5, 150 mM NaCl, 1 mM EDTA, 0.1% Triton X-100; mouse anti-FLAG and protein A/G agarose at 4 C; blots with rabbit anti-Xbp1 or anti-ZF

binding: binds
B1: spliced X-box binding protein (Xbp1s) (protein, UniProt P17861-2 1-376)
chain: MVVVAAAPNPADGTPKVLLLSGQPASAAGAPAGQALPLMVPAQRGASPEAASGGLPQARKRQRLTHLSPEEKALRRKLKNRVAAQTARDRKKARMSELEQQVVDLEEENQKLLLENQLLREKTHGLVVENQELRQRLGMDALVAEEEAEAKGNEVRPVAGSAESAAGAGPVVTPPEHLPMDSGGIDSSDSESDILLGILDNLDPVMFFKCPSPEPASLEELPEVYPEGPSSLPASLSLSVGTSSAKLEAINELIRFDHIYTKPLVLEIPSETESQANVVVKIEEAPLSPSENDHPEFIVSVKEEPVEDDLVPELGISNLLSSSHCPKPSSCLLDAYSDCGYGGSLSPFSDMSSLLGVNHSWEDTFANELFPQLISV

No constants are given. Whether binding was seen depends on the method and setting. In cells and extracts the contact can be indirect. Binding can be weak; no strength is given.
